# Data published in publication PMC10837360.
# Results are given in words; binding and its absence hold for the method and conditions named. Binding seen in cells or lysates may run through a third protein. Some results given as binding are weak or reduced against the parent protein; the word gives no strength. Where a sequence is shown, tags or fusion partners need not be part of it.
# T1: Flag-SLC27A5 (solute carrier family 27 member 5, 3xFlag-tagged) (human) (UniProt Q9Y2P5)
# T1 sequence: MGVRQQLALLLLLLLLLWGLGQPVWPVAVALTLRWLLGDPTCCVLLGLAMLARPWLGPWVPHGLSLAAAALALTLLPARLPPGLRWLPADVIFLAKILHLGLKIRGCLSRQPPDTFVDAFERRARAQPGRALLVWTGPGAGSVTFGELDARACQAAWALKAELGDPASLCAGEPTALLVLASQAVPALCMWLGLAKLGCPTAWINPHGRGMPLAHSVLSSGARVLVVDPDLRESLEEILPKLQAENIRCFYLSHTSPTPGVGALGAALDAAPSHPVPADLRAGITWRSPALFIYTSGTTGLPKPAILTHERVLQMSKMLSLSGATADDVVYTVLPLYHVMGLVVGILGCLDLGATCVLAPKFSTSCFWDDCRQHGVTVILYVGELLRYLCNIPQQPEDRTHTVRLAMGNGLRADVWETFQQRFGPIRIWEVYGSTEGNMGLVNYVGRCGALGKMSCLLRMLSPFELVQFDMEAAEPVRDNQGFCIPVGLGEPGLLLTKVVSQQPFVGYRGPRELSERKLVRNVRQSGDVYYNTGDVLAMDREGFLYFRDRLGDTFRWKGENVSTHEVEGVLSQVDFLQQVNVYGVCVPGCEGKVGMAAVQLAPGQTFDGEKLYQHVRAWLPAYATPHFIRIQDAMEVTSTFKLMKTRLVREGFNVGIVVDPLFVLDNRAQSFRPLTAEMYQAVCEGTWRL
# B1: IGF2BP3 KH3-4 (aa 345-579) (domain or fragment, UniProt O00425 345-579)
# chain: KKIRESYENDIASMNLQAHLIPGLNLNALGLFPPTSGMPPPTSGPPSAMTPPYPQFEQSETETVHLFIPALSVGAIIGKQGQHIKQLSRFAGASIKIAPAEAPDAKVRMVIITGPPEAQFKAQGRIYGKIKEENFVSPKEEVKLEAHIRVPSFAAGRVIGKGGKTVNELQNLSSAEVVVPRDQTPDENDQVVVKITGHFYACQVAQRKIQEILTQVKQHQQQKALQSGPPQSRRK
# Target: T1, Flag-SLC27A5 (solute carrier family 27 member 5, 3xFlag-tagged) (human)
# Experiment: co-IP; PLC/PRF/5 cells transfected with Flag-SLC27A5 and Myc-IGF2BP3 or their truncated forms; IP with anti-Myc or anti-Flag, IgG as control; RIPA lysate, magnetic beads, overnight at 4 °C
binder,measurement,value
B1,binding,binds
